Source: publication PMC6065531

T1: MBP-Cnn-PA-N (D. melanogaster) (UniProt P54623)
T1 sequence: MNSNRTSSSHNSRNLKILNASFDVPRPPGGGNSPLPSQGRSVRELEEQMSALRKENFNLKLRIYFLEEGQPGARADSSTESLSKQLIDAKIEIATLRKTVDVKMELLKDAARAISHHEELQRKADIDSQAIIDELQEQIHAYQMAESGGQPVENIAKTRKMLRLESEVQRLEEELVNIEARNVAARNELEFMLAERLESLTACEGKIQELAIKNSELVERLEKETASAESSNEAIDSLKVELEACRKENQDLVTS


What was measured:
[1] = target: T1, MBP-Cnn-PA-N (D. melanogaster); assay: co-IP; purified MBP-Cnn fragments (2.5 μg/ml) added to embryo extract with or without sfGFP-Mzt1, 1 h at 4°C; anti-MBP antibodies on protein A Dynabeads overnight at 4°C; western blot; only the target purified
[2] = target: Mzt1 (bait, pGBKT7-Mzt1) (D. melanogaster) (UniProt Q6ILY6); assay: two-hybrid; Matchmaker Gold; Mzt1 as bait (pGBKT7, Y2HGold), Grip NTE fragments as prey (pGADT7, Y187); mated yeast spotted on DDO and QDO plates (QDO with aureobasidin A), both with X-α-Gal; 30°C, ~3 days

Row | binding [1] | binding [2] | Molecule
1 | no binding (tested: 2.5 μg/ml) |  | γ-tubulin (D. melanogaster (endogenous in embryos))
2 |  | binds weakly | N-terminal extension (NTE) region of Grip91 (aa1-231) (domain or fragment, UniProt Q9XYP8 1-231) MSQDRIAGIDVATNSTDISNIINEMIICIKGKQMPEVHEKAMDHLSKMIAANSRVIRDSNMLTERECVQKIMKLLSARNKKEEGKTVSDHFNELYRKLTLTKCDPHMRHSLMTHLLTMTDNSDAEKAVASEDPRTQCDNLTQILVSRLNSISSSIASLNEMGVVNGNGVGAAAVTGAAAVTGAAAVTGAAAVTGAAASHSYDATQSSIGLRKQSLPNYLDATKMLPESRHD

No constants are given. Whether binding was seen depends on the method and setting. For some assays here: Binding calls can cover weak binding; strength is not graded here. For some assays here: In cells and extracts the contact can be indirect. For some assays here: Sequences can lack the tags named with a protein.
